Measured values reported in PMC12667536.

By UniProt entry, the sequences of proteins in these tests, tags left out. Where a name states a change or a piece, a line headed by the entry shows the natural chain unless it says otherwise. Residues count along the entry.
UniProt P15311: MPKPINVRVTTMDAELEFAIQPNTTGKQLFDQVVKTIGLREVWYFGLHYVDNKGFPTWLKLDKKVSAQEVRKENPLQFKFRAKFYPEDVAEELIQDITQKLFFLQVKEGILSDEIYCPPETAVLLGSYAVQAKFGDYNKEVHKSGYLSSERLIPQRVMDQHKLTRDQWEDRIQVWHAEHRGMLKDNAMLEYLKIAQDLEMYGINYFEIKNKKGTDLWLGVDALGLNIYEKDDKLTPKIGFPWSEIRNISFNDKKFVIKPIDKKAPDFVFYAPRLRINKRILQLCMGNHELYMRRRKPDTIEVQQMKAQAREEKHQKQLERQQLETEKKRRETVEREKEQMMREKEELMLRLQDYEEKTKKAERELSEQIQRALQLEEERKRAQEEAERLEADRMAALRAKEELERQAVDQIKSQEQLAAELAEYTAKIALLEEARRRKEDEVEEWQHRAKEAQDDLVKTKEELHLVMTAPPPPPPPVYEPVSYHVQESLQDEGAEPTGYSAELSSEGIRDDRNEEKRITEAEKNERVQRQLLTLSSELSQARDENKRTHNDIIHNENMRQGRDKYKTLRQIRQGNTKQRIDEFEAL
UniProt Q8IUD2: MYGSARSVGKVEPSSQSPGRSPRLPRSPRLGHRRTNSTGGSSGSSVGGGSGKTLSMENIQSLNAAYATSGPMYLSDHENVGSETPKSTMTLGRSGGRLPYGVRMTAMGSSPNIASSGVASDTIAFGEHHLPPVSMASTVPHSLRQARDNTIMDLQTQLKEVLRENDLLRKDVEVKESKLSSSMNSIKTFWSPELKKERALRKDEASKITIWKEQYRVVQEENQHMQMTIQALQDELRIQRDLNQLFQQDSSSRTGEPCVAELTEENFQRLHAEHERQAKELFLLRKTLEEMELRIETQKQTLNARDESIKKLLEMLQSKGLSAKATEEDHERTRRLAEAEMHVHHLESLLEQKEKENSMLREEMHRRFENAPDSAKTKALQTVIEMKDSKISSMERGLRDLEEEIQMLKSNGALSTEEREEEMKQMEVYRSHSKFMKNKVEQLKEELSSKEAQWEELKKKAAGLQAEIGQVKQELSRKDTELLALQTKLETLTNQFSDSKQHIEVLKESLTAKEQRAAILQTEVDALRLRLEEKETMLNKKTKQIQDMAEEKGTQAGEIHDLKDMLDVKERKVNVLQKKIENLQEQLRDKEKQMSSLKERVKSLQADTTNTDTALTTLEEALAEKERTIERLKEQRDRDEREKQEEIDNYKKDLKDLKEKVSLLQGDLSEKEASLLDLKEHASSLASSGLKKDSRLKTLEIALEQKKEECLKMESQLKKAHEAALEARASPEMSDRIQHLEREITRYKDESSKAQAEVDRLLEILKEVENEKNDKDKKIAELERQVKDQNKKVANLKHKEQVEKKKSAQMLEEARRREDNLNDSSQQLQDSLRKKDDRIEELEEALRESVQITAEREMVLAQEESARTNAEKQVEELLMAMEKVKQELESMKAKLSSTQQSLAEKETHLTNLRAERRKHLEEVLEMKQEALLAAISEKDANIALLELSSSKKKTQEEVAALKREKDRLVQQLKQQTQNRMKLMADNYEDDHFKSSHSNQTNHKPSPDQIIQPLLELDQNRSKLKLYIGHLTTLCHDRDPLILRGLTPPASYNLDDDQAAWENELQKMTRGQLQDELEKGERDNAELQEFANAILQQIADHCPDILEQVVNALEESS
UniProt P05556: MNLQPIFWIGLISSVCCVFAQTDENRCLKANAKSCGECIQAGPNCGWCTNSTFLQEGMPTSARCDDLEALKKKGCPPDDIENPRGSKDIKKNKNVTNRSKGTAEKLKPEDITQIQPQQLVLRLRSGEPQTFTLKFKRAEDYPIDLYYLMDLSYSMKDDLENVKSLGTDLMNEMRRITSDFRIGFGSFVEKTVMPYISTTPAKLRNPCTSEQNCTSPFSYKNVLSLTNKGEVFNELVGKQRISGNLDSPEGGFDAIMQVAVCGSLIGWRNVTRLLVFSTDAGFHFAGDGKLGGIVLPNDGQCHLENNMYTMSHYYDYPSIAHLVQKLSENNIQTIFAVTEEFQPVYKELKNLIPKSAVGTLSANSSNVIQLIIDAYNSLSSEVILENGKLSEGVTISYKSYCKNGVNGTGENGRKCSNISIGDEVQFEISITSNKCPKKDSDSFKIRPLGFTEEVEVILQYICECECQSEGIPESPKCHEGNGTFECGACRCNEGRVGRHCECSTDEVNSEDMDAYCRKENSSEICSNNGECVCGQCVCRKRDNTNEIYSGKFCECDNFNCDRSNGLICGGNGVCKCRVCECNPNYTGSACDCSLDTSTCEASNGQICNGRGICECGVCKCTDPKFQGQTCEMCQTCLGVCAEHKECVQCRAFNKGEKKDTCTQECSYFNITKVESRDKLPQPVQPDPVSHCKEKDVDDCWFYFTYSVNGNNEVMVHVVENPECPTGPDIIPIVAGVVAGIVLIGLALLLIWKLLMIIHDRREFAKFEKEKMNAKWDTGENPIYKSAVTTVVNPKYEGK
UniProt P16070, residues 21-742: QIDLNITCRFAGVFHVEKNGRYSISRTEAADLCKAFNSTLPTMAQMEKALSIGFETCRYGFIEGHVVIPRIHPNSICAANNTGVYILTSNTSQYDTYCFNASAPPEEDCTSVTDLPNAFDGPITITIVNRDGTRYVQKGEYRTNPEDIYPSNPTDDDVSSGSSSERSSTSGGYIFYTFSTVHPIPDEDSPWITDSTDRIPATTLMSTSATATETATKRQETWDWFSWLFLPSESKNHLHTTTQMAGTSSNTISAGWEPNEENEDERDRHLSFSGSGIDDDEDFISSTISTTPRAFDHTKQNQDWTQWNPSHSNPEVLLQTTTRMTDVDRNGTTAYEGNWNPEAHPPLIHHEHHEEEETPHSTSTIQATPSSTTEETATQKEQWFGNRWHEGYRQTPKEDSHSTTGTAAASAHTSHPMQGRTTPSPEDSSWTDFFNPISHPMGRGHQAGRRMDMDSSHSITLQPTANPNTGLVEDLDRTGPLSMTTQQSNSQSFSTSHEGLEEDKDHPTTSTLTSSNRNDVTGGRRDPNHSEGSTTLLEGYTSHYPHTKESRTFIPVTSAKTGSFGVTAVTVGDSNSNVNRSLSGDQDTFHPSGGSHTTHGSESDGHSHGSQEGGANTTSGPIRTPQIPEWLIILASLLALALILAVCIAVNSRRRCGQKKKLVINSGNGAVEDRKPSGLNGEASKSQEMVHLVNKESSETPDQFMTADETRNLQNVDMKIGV
UniProt P11166: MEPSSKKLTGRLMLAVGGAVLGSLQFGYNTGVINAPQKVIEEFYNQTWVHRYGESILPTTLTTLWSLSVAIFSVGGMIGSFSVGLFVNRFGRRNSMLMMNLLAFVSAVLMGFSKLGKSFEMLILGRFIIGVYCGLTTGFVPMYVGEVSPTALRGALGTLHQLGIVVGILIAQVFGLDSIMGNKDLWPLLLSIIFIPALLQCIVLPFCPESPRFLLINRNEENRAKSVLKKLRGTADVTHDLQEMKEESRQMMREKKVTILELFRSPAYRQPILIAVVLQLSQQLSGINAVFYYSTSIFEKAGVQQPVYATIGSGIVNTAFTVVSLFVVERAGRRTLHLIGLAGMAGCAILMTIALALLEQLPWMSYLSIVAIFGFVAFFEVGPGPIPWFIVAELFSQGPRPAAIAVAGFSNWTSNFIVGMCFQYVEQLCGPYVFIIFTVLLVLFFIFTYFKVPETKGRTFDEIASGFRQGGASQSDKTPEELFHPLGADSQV

T1: Flag-GCWT (wild type group-specific component protein, vitamin D binding protein) (UniProt P02774)
T1 sequence: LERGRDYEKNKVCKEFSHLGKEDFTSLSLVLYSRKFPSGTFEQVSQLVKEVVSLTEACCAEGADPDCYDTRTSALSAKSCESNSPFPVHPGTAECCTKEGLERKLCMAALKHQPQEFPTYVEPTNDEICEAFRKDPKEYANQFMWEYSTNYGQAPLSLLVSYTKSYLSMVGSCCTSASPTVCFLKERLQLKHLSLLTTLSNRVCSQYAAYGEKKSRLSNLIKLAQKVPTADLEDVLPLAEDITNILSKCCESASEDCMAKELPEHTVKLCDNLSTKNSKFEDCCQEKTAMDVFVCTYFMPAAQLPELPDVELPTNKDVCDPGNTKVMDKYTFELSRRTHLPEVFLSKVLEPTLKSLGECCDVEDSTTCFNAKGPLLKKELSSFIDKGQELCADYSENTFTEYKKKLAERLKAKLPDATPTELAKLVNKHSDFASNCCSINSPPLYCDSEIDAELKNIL


Biological target: T1, Flag-GCWT (wild type group-specific component protein, vitamin D binding protein)
Test: affinity purification with mass spectrometry; Flag-GCWT overexpression plasmid transfected into shGCWT Patu8988; immunoprecipitation with Flag antibody; liquid chromatography tandem mass spectrometry

Row | binding | Molecule
1 | binds | EZR (from UniProt P15311 1-586)
2 | binds | ERC1 (from UniProt Q8IUD2 1-1116)
3 | binds | integrin β1 (ITGB1) (from UniProt P05556 21-798) (receptor)
4 | binds | CD44 (from UniProt P16070 21-742) (receptor)
5 | binds | SLC2A1 (from UniProt P11166 1-492)
6 | binds | EHD1 (protein, UniProt Q9H4M9 1-534) MFSWVSKDARRKKEPELFQTVAEGLRQLYAQKLLPLEEHYRFHEFHSPALEDADFDNKPMVLLVGQYSTGKTTFIRHLIEQDFPGMRIGPEPTTDSFIAVMHGPTEGVVPGNALVVDPRRPFRKLNAFGNAFLNRFMCAQLPNPVLDSISIIDTPGILSGEKQRISRGYDFAAVLEWFAERVDRIILLFDAHKLDISDEFSEVIKALKNHEDKIRVVLNKADQIETQQLMRVYGALMWSLGKIINTPEVVRVYIGSFWSHPLLIPDNRKLFEAEEQDLFKDIQSLPRNAALRKLNDLIKRARLAKVHAYIISSLKKEMPNVFGKESKKKELVNNLGEIYQKIEREHQISPGDFPSLRKMQELLQTQDFSKFQALKPKLLDTVDDMLANDIARLMVMVRQEESLMPSQVVKGGAFDGTMNGPFGHGYGEGAGEGIDDVEWVVGKDKPTYDEIFYTLSPVNGKITGANAKKEMVKSKLPNTVLGKIWKLADVDKDGLLDDEEFALANHLIKVKLEGHELPADLPPHLVPPSKRRHE
7 | binds | ANXA1 (protein, UniProt P04083 1-346) MAMVSEFLKQAWFIENEEQEYVQTVKSSKGGPGSAVSPYPTFNPSSDVAALHKAIMVKGVDEATIIDILTKRNNAQRQQIKAAYLQETGKPLDETLKKALTGHLEEVVLALLKTPAQFDADELRAAMKGLGTDEDTLIEILASRTNKEIRDINRVYREELKRDLAKDITSDTSGDFRNALLSLAKGDRSEDFGVNEDLADSDARALYEAGERRKGTDVNVFNTILTTRSYPQLRRVFQKYTKYSKHDMNKVLDLELKGDIEKCLTAIVKCATSKPAFFAEKLHQAMKGVGTRHKALIRIMVSRSEIDMNDIKAFYQKMYGISLCQAILDETKGDYEKILVALCGGN

These are yes or no findings as the source states them, for the method shown. Binding seen in cells or lysates may run through a third protein. A yes stands for co-enrichment or nearness to the bait. Other partners may have been found. Sequences can lack the tags named with a protein.
